Among all 6,900 compounds or so, fewer than 10 were called active. The call rests on the fitted dose curve; in most records, active means well fitted curve in the direction sought with a large enough effect; inconclusive means small, poorly fitted or top-dose-only effect, or another doubt; inactive means no such curve, though single readings can be large or run the other way. The list shows a part of the results.
Target: Metallo-beta-lactamase type 2 (Klebsiella pneumoniae) (UniProt C7C422)
Assay: qHTS to identify inhibitors of the New Delhi Metallo-beta-lactamase (NDM): primary screen against the NCATS Gemini Collection; further: % of control where 0% means no effect
Conditions: NDM-1 enzyme, meropenem hydrolysis, absorbance 300 nm; at 38.4 µM (top of the series) unless noted
Method in brief: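 NDM-1 at 2 nM final in 50 mM HEPES pH 7.0, 1 uM ZnSO4, 0.01% Tween20, preincubated >30 min with compound. Meropenem 50 uM final added; absorbance at 300 nm after 30 min.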

Sequences of proteins named here, by UniProt entry; tags and fusion partners are left off. A change or cut given only in a name is not applied to a line headed by its entry.
UniProt C7C422: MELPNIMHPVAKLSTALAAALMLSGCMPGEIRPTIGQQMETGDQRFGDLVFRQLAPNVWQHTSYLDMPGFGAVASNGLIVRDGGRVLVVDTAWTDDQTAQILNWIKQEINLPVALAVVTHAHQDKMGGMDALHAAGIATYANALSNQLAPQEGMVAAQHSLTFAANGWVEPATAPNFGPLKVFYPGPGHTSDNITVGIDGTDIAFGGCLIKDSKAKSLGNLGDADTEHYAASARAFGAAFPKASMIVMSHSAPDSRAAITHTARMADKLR

| Structure (SMILES) | activity % (negative = inhibition) |
| --- | --- |
| Nc1cc(C(=O)N2CCc3onc(-c4ccc(-c5ccccc5)cc4)c3C2)[nH]n1 | inactive: 19.3% |
| CCc1nnc2ccc(NC3CC3)nn12 | inactive: 10.5% |
| C=CCn1cc(CN(CC)Cc2ccc(OC)cc2)c(C)n1 | inactive: -3.32% |
| CCc1noc(-c2cn(C3CCCN(C(=O)COc4cccc(C)c4)C3)nn2)n1 (stereo not drawn) | inactive: -4.77% |
| Cc1cc(C(=O)N[C@H]2[C@H](O)[C@H](O)C[C@@H]2c2ccc(N3CCOCC3)nc2)n(C)n1 | inactive: 17.4% [at 57.5 µM] |
| CCC(=O)N1CCc2sc(C(=O)NCc3ccc4c(c3)OCO4)cc2C1 | inactive: 11.1% |
| CC(=O)Nc1cccc(-c2ncc3c(n2)OCCN(CC2CC2)C3=O)c1 | inactive: 23.9% [at 57.5 µM] |
| O=C1COCCN1C1CCN(Cc2ccc(F)cc2)CC1 | inactive: -6.53% |
| COCCOc1cc(=O)n2c(c1C(=O)NCc1ccccc1)CCOCC2 | inactive: 2.55% |
| CN1CCN(CCCNC(=O)C2CCc3sc(C(=O)N4CCCCCC4)cc3C2)CC1 (stereo not drawn) | inactive: 3.23% |
| CC(C)NC(=O)c1ccccc1OCC1CCCN(Cc2cn(C)c3ccccc23)C1 (stereo not drawn) | inactive: 2.17% |
| CC(C)c1nccn1CCCNC(=O)c1ccc(N2CCCC(CO)C2)nc1 (stereo not drawn) | inactive: 17.7% |
| O=C(c1cnccn1)N1CCC(c2nc(C3CC3)no2)C1 (stereo not drawn) | inactive: 5.6% |
| O=C(Nc1ccc2c(N3CCOCC3)ncnc2c1)c1cccc(Cl)c1 | inactive: 10.7% |
| COCCc1noc(-c2ccc(N(C)Cc3ccnc(C)c3)nc2)n1 | inactive: 3.53% |
| O=C(NC[C@H]1OC[C@@H](NC2CCCCC2)[C@@H]1O)N1CCOCC1 | inactive: 0.481% [at 57.5 µM] |
| CN1CCCCCCN(C(=O)Cc2cccc(F)c2)[C@H]2CCC[C@H]2C1=O | inactive: -0.368% |
| COC[C@H]1NC(=O)CC[C@H]1C(=O)NCCC1=CCCCC1 | inactive: -2.66% |
| CN(C)C[C@@H]1CN(S(C)(=O)=O)C[C@H]1NC(=O)CC1CCN(C)CC1 | inactive: -18.1% |
| CCn1cc(CNc2ccc(-c3ccccc3OC)nn2)cn1 | inactive: 3.91% |
| CN1C(=O)CC[C@]2(C(=O)NCc3ccco3)CCCC[C@@H]12 | inactive: 73.1% |
| CCOCCCNC(=O)c1cc2c(=O)[nH]c(-c3ccccc3)cn2n1 | inactive: 65% |

| Structure (SMILES) | activity % (negative = inhibition) |
| --- | --- |
| COc1cccc(CN2CCC(n3cc[nH]c3=O)CC2)c1 | inactive: 5.24% [at 57.5 µM] |
| Cc1cc(C(F)(F)F)nc(CCNC(=O)C2NCCc3[nH]cnc32)n1 (stereo not drawn) | inactive: 40.1% |
| O=C1CC(C(=O)Nc2cccc(Cl)c2)n2ncnc2N1 (stereo not drawn) | inactive: 0.494% |
| O=C(COc1ccccc1)N1CCc2nn(Cc3ccccc3)c(=O)n2CC1 | inactive: 2.95% |
| CN(Cc1cccnc1)C(=O)c1n[nH]c2c1CN(Cc1cccnc1)CC2 | inactive: -1.01% |
| O=C(c1ccc2c(c1)N(C(=O)c1ccccc1)CC2)N1CCN(c2ccc(Cl)cc2)CC1 | inactive: 5.37% |
| CNS(=O)(=O)CCNc1nc(-c2ccccn2)nc2c1c(C)nn2C | inactive: 1.42% |
| CCOc1ccccc1CN1CCCOCCNC(=O)[C@@H]2CCCC[C@@H]21 | inactive: 8.41% |
| Cc1cc(C[C@@H]2COC[C@@H]2NC(=O)c2cnn3cc(CCO)cnc23)on1 | inactive: 23.9% |
| Cc1ccccc1CNC[C@H]1O[C@@H]2C[C@@H](CC(=O)NCc3nccn3C)O[C@@H]2[C@@H]1O | inactive: 8.75% [at 57.5 µM] |
| CCn1ncc(N2CCCC(CC(=O)Nc3cc(OC)cc(OC)c3)C2)cc1=O (stereo not drawn) | inactive: 42.6% |
| Cn1cccc1CN1CC(F)(F)C[C@H]1c1nnc(C2CC2)o1 | inactive: 5.85% |
| O=C(c1ccc(Cl)cc1)N1CCCC2(CNc3ncccc3[S+](=O)([O-])N2)C1 (stereo not drawn) | inactive: 25.3% |
| COc1ccc(CCN(Cc2ccccn2)C(=O)[C@H]2CCC[C@H](O)C2)cc1 | inactive: 12.7% |
| Cc1ccc(-c2cc3c(ccn3C)c(C(=O)NCc3cccnc3)n2)cn1 | inactive: 9.15% [at 57.5 µM] |
| COC[C@]1(O)CCN(C(=O)c2oc(COc3ccccc3)cc2C)CC1(C)C | inactive: 13.3% |
| CCCCS(=O)(=O)N1CCC(c2nnc(Cn3cncn3)n2C)CC1 | inactive: 20.2% |
| C#CCNC(=O)CNC(=O)c1cccc(-c2cc(F)ccc2OC)c1 | inactive: 3.26% [at 57.5 µM] |
| O=C(N[C@H](c1cccs1)C1CC(O)C1)c1cnn2cc(CCO)cnc12 (stereo partly drawn) | inactive: 12% |
| CCn1nccc1C(=O)N1CCC(Nc2nccnc2OC)CC1 | inactive: -5.5% |
| CCc1noc([C@@H]2CC(F)(F)CN2C(=O)c2cc(C3CC3)[nH]n2)n1 | inactive: 6.71% |

2 successive entries from above:

| Structure (SMILES) | activity % (negative = inhibition) |
| --- | --- |
| COc1cccc(CN2CCC(n3cc[nH]c3=O)CC2)c1 | inactive: 5.24% [at 57.5 µM] |
| Cc1cc(C(F)(F)F)nc(CCNC(=O)C2NCCc3[nH]cnc32)n1 (stereo not drawn) | inactive: 40.1% |

Source: PubChem BioAssay AID1794845 (National Center for Advancing Translational Sciences (NCATS), 2023)
